Measurements: patent publication US9920050B2, “Fused heterocyclic compound and pest control use thereof” (Sumitomo Chemical Company, Limited, priority 2013, dated 2018)
Some of these results come from one statement about several compounds together. At least one structure is not confirmed: it was looked up by name or label, or the drawing left a doubt.

Columns and labels:
Assay type in all cases: in vivo
Aphis gossypii [1] = test: Test Example 1: foliar spray on cucumber seedling inoculated with Aphis gossypii; details: 500 ppm, 20 ml sprayed on cucumber seedling, six days after spraying
Aphis gossypii [2] = test: Test Example 2: soil drench of cucumber seedling, then inoculation with Aphis gossypii; details: 500 ppm, 5 ml drench at foot of cucumber seedling, 7 days then inoculation, further 6 days
Nilaparvata lugens = test: Test Example 3: foliar spray on rice seedling, Nilaparvata lugens larvae; details: 500 ppm, 10 ml sprayed on rice seedling, third-fourth instar larvae, after 6 days

SMILES	control value (Aphis gossypii [1])	control value (Aphis gossypii [2])	control value (Nilaparvata lugens)
CCS(=O)(=O)c1cc(NC(=O)OCc2ccccc2)cnc1-c1nc2cc(C(F)(F)F)cnc2n1C [compound 1]	≥ 90%	–	–
CCS(=O)(=O)c1cc(NC(=O)C2CCC2)cnc1-c1nc2cc(C(F)(F)F)cnc2n1C [compound 8]	–	≥ 90%	–
CCS(=O)(=O)c1cc(NC2CC2)cnc1-c1nc2cc(C(F)(F)F)cnc2n1C [compound 9]	–	≥ 90%	–
CCS(=O)(=O)c1cc(N(C)S(C)(=O)=O)cnc1-c1nc2cc(C(F)(F)F)cnc2n1C [compound 13]	–	≥ 90%	–
CCS(=O)(=O)c1cc(NNC(=O)OC)cnc1-c1nc2cc(C(F)(F)F)cnc2n1C [compound 15]	–	≥ 90%	≥ 90%
CCS(=O)(=O)c1cc(NC(=O)C(=O)N(C)C)cnc1-c1nc2cc(C(F)(F)F)cnc2n1C [compound 16]	–	≥ 90%	≥ 90%
CCS(=O)(=O)c1cc(N(C(C)=O)C2CC2)cnc1-c1nc2cc(C(F)(F)F)cnc2n1C [compound 17]	≥ 90%	–	–
CCS(=O)(=O)c1cc(NN)cnc1-c1nc2cc(C(F)(F)F)cnc2n1C [compound 19]	≥ 90%	≥ 90%	≥ 90%
CCS(=O)(=O)c1cc(NC(=O)C2CC2)cnc1-c1nc2cc(C(F)(F)F)cnc2n1C [compound 22]	–	≥ 90%	≥ 90%
CCS(=O)(=O)c1cc(NC(=O)C2CCCO2)cnc1-c1nc2cc(C(F)(F)F)cnc2n1C (centres unmarked) [compound 23]	–	≥ 90%	≥ 90%
CCS(=O)(=O)c1cc(NCc2cccnc2)cnc1-c1nc2cc(C(F)(F)F)cnc2n1C [compound 27]	≥ 90%	–	–
CCS(=O)(=O)c1ccc(NOC)nc1-c1nc2cc(C(F)(F)F)cnc2n1C [compound 30]	≥ 90%	≥ 90%	≥ 90%
CCS(=O)(=O)c1ccc(NNC(=O)OC)nc1-c1nc2cc([S+]([O-])C(F)(F)F)ccc2o1 (centres unmarked) [compound 33]	–	≥ 90%	–
CCS(=O)(=O)c1ccc(NCc2ccccc2)nc1-c1nc2cc([S+]([O-])C(F)(F)F)ccc2o1 (centres unmarked) [compound 34]	≥ 90%	–	≥ 90%
CCS(=O)(=O)c1ccc(N(C)C(=O)C2CC2)nc1-c1nc2cc(C(F)(F)F)ccc2o1 [compound 39]	≥ 90%	–	≥ 90%
CCS(CC)=Nc1ccc(S(=O)(=O)CC)c(-c2nc3cc([S+]([O-])C(F)(F)F)ccc3o2)n1 (centres unmarked) [compound 41]	≥ 90%	≥ 90%	≥ 90%
CCS(=O)(=O)c1ccc(NCc2ccc(Cl)nc2)nc1-c1nc2cc([S+]([O-])C(F)(F)F)ccc2o1 (centres unmarked) [compound 46]	≥ 90%	–	≥ 90%
CCS(=O)(=O)c1ccc(NS(C)(=O)=O)nc1-c1nc2cc([S+]([O-])C(F)(F)F)ccc2o1 (centres unmarked) [compound 48]	≥ 90%	–	≥ 90%
CCS(=O)(=O)c1ccc(NS(=O)(=O)C(F)(F)F)nc1-c1nc2cc([S+]([O-])C(F)(F)F)ccc2o1 (centres unmarked) [compound 49]	≥ 90%	–	–
CCS(=O)(=O)c1ccc(N=C(c2ccccc2)c2ccccc2)nc1-c1nc2cc([S+]([O-])C(F)(F)F)ccc2o1 (centres unmarked) [compound 51]	≥ 90%	–	≥ 90%
CCS(=O)(=O)c1ccc(N=C(c2ccccc2)c2ccccc2)nc1-c1nc2cc(C(F)(F)F)ccc2o1 [compound 54]	≥ 90%	–	≥ 90%
CCS(=O)(=O)c1ccc(N(C)S(=O)(=O)C(F)(F)F)nc1-c1nc2cc(C(F)(F)F)ccc2o1 [compound 57]	≥ 90%	–	–
